Source: publication PMC11323550

Protein sequences, listed by entry. Tags and fused reporters are not part of them. Lines headed by an entry give the natural chain unless they say otherwise; changes in a name come on top.
UniProt P0A068: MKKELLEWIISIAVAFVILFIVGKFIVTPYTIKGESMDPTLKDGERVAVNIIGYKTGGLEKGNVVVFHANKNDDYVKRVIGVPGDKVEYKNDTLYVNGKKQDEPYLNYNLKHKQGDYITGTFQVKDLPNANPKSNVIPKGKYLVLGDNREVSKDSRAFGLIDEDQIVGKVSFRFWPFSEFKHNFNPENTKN

T1: MspA tagged at the C-terminus with mCherry (S. aureus) (UniProt Q2FVZ6)
T1 sequence: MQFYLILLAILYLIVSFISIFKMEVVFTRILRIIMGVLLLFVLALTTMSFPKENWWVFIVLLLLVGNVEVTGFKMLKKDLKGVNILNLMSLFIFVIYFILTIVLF

B1: cell wall amidase LytH (enzyme, UniProt O32421 41-291)
chain: EDSGNITITENAELRTGPNAAYPVIYKVEKGDHFKKIGKVGKWIEVEDTSSNEKGWIAGWHTNLDIVADNTKEKNPLQGKTIVLDPGHGGSDQGASSNTKYKSLEKDYTLKTAKELQRTLEKEGATVKMTRTDDTYVSLENRDIKGDAYLSIHNDALESSNANGMTVYWYHDNQRALADTLDATIQKKGLLSNRGSRQENYQVLRQTKVPAVLLELGYISNPTDETMIKDQLHRQILEQAIVDGLKIYFSA
B2: DltD protein (protein, UniProt Q2FZW3 1-391)
chain: MKLKPFLPILISGAVFIVFLLLPASWFTGLVNEKTVEDNRTSLTDQVLKGTLIQDKLYESNKYYPIYGSSELGKDDPFNPAIALNKHNANKKAFLLGAGGSTDLINAVELASQYDKLKGKKLTFIISPQWFTNHGLTNQNFDARMSQTQINQMFQQKNMSTELKRRYAQRLLQFPHVHNKEYLKSYAKNPKETKDSYISGFKENQLIKIEAIKSLFAMDKSPLEHVKPATKPDASWDEMKQKAVEIGKADTTSNKFGIRDQYWKLIQESKRKVRRDYEFNVNSPEFQDLELLVKTMRAAGADVQYVSIPSNGVWYDHIGIDKERRQAVYKKIHSTVVDNGGKIYDMTDKDYEKYVISDAVHIGWKGWVYMDEQIAKHMKGEPQPEVDKPKN

Each molecule was assayed against T1, MspA tagged at the C-terminus with mCherry (S. aureus) (assay: affinity purification with mass spectrometry; MspA-mCherry as bait, captured on ChromoTek RFP-Trap Magnetic Agarose beads from S. aureus SH1000 lysate in co-IP buffer (50-mM Tris/Cl, pH 7.5, 150-mM NaCl, 20-mM MgCl, 0.2% Tween 20), 4°C overnight; eluate analysed by liquid chromatography-mass spectrometry against the negative control SH1000 pCN34; biological triplicate).

| Molecule | binding |
| --- | --- |
| FmtA (S. aureus (endogenous in SH1000)) (enzyme) | binds |
| SpsB, type I signal peptidase (endogenous) (from UniProt P0A068) (enzyme) | binds |
| TagH (S. aureus (endogenous in SH1000)) | binds |
| B1 | binds |
| B2 | binds |

No constants are given. Whether binding was seen depends on the method and setting. In cells and extracts the contact can be indirect. These calls come from enrichment with a bait or labelling near it, and not all partners need be listed. Tags and fused reporters may be left off the sequences shown.
